Measured values taken from article doi:10.1101/2021.12.09.471902.
Where two headings read alike, the source gives them in different places. Results are given in words; binding and its absence hold for the method and conditions named. In cells and extracts the contact can be indirect. Some entries that bind do so weakly or less than the wild type. For part of these data: Sequences can lack the tags named with a protein. One block for each molecule: values may come before it.

Chains of the proteins cited; added tags and fusions are not shown. Lines headed by an entry give the natural chain unless they say otherwise; changes in a name come on top.
UniProt Q8IXI2: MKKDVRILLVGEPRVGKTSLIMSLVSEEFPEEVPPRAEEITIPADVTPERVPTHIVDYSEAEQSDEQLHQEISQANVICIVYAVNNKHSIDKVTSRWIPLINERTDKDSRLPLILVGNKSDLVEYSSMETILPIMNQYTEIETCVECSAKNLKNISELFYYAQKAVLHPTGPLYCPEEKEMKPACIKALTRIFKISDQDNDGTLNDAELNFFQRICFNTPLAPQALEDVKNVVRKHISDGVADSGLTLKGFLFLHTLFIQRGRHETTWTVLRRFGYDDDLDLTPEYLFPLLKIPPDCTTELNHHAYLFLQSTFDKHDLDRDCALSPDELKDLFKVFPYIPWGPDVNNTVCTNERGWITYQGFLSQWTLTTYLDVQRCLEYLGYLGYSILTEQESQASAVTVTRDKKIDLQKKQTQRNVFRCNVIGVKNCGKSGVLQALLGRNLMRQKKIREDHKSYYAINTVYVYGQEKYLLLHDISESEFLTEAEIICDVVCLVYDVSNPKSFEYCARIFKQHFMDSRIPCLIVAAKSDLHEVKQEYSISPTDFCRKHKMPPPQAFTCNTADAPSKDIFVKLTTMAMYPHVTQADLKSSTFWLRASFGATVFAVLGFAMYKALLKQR
UniProt P21279: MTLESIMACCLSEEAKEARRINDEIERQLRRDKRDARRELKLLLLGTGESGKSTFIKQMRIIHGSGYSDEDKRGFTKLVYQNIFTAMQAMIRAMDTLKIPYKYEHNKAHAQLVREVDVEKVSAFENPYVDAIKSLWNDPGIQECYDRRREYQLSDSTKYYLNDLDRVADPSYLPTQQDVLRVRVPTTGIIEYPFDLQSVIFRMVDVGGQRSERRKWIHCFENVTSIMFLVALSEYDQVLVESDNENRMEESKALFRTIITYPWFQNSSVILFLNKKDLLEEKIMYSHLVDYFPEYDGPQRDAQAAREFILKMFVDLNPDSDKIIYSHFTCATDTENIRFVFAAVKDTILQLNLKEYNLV

Experiments:
Test in all cases: co-IP
HA-Trak2 = target: T1, HA-Trak2 (UniProt O60296)
T1 sequence: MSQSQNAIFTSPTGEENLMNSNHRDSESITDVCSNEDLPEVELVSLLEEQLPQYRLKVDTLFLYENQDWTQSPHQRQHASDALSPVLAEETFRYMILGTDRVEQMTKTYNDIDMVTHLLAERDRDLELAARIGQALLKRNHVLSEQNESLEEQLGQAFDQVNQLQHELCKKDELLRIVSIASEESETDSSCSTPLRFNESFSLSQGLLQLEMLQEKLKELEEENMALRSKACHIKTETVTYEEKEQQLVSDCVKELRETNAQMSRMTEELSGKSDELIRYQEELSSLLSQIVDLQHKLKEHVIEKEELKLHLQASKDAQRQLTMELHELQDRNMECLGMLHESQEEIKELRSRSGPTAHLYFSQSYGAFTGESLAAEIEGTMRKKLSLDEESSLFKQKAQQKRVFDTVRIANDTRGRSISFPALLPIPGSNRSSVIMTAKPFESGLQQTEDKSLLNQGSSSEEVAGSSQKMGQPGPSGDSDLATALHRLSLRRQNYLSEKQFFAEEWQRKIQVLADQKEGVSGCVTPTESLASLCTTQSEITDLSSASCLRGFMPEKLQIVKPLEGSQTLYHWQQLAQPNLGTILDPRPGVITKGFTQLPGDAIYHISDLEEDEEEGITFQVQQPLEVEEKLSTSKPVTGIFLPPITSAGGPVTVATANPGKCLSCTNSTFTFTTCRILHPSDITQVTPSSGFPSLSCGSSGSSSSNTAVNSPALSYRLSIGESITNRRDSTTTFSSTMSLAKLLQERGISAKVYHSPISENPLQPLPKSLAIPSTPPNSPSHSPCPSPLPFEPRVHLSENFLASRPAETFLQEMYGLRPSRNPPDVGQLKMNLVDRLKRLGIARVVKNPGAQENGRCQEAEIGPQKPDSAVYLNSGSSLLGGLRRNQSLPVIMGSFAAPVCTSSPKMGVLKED

GFP-Alex3 = target: T2, GFP-Alex3 (UniProt Q8BHS6)
T2 sequence: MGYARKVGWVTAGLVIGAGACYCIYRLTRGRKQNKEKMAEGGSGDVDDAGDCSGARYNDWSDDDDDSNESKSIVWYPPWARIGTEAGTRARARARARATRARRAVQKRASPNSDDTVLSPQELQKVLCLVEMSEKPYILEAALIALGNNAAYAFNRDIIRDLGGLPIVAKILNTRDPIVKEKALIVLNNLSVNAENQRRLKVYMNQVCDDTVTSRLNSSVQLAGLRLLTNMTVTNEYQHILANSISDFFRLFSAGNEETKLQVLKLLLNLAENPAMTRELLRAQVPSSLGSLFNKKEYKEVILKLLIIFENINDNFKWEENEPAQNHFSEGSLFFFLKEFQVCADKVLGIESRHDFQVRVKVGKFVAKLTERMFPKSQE

HA-Trak1 = target: T3, HA-Trak1 (UniProt Q9UPV9)
T3 sequence: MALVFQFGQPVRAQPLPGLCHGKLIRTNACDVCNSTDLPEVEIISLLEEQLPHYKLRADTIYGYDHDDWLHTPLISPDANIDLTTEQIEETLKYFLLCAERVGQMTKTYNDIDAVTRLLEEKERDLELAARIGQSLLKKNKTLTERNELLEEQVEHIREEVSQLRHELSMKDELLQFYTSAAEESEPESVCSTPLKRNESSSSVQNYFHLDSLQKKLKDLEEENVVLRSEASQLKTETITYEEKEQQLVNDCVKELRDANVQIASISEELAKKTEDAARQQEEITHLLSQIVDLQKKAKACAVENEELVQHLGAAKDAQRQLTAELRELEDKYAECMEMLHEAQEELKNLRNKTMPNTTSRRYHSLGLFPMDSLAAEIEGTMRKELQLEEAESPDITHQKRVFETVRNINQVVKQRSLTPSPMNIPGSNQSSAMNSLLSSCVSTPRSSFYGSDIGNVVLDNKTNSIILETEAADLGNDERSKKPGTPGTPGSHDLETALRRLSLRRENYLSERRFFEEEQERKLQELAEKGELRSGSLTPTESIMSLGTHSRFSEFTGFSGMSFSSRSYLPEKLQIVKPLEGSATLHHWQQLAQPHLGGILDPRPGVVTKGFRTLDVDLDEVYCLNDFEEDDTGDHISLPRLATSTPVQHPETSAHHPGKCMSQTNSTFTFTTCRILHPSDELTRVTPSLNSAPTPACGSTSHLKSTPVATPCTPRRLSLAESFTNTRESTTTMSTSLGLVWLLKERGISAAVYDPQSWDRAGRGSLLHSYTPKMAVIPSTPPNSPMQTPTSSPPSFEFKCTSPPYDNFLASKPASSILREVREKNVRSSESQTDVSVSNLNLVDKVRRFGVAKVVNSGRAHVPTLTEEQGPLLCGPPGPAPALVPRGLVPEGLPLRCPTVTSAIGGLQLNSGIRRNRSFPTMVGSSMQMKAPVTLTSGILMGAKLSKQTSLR

myc-Alex3 = target: T4, myc-Alex3 (UniProt Q8BHS6)
T4 sequence: T2 sequence

Myc-Miro1 [1] = target: Myc-Miro1 (UniProt Q8IXI2)
Myc-Miro1 [2] = target: Myc-Miro1 (UniProt Q8IXI2); remark: listed apart in the source

Molecule: GαqR183C (from UniProt P21279 1-359)
binding (HA-Trak2): binds
binding (GFP-Alex3): binds
binding (HA-Trak1): binds
binding (myc-Alex3): binds
binding (Myc-Miro1 [1]): binds
binding (Myc-Miro1 [2]): binds

binding (HA-Trak2): binds
binding (HA-Trak1): no binding
binding (Myc-Miro1 [1]): binds
B1: Alex3 (endogenous, human cells) (protein, UniProt Q9UH62 1-379)
chain: MGYARKVGWVTAGLVIGAGACYCIYRLTRGRKQNKEKMAEGGSGDVDDAGDCSGARYNDWSDDDDDSNESKSIVWYPPWARIGTEAGTRARARARARATRARRAVQKRASPNSDDTVLSPQELQKVLCLVEMSEKPYILEAALIALGNNAAYAFNRDIIRDLGGLPIVAKILNTRDPIVKEKALIVLNNLSVNAENQRRLKVYMNQVCDDTITSRLNSSVQLAGLRLLTNMTVTNEYQHMLANSISDFFRLFSAGNEETKLQVLKLLLNLAENPAMTRELLRAQVPSSLGSLFNKKENKEVILKLLVIFENINDNFKWEENEPTQNQFGEGSLFFFLKEFQVCADKVLGIESHHDFLVKVKVGKFMAKLAEHMFPKSQE
